Experimental data: patent US11034724B2 (Stealth BioTherapeutics Corp., priority 2017, dated 2021)

Assay: peptide synthesis
[1] = late stage modification step, HPLC-UV

Substance	purity (crude or final not stated) (HPLC-UV) [%]	final HPLC purity (purification step, % area, run 1) [%]	final HPLC purity (purification step, % area, run 2) [%]	final HPLC purity (purification step, % area, run 3) [%]	final HPLC purity (purification step, % area, run 4) [%]	final HPLC purity (purification step, HPLC-UV, run 1)	step yield (purification step, theoretical yield, run 1) [%]	step yield (purification step, theoretical yield, run 2) [%]	step yield (purification step, theoretical yield, run 3) [%]	step yield (purification step, theoretical yield, run 4) [%]	difficulty met (late stage modification step)	crude HPLC purity [1]	final HPLC purity [1] [area %]	step yield (late stage modification step, uncorrected for residual solvents) [%]
Boc-D-Arg-DMT-Lys(Boc)-Phe-NH2	97.50	98.51	98.63	99.24	98.44	98.63% and 99.24% and 98.44%	85.06	88.97	31.57	84.39	–	–	–	–
D-Arg-DMT-Lys-Phe-NH2	–	–	–	–	–	–	–	–	–	–	formation of isopropyl ester analog as well as several t-butylated analogs as impurities	98.41% a/a and 98.08 area %	98.07	96

“And” between values parts separate entries of the source, which are not always exact repeats. Identical values can stand only once.
